Laboratory results reported in the supplement of paper PMC10849652.
The other results are listed elsewhere or left out.

By UniProt entry, the sequences of proteins in these tests, tags left out. Where a name states a change or a piece, a line headed by the entry shows the natural chain unless it says otherwise.
UniProt P49903: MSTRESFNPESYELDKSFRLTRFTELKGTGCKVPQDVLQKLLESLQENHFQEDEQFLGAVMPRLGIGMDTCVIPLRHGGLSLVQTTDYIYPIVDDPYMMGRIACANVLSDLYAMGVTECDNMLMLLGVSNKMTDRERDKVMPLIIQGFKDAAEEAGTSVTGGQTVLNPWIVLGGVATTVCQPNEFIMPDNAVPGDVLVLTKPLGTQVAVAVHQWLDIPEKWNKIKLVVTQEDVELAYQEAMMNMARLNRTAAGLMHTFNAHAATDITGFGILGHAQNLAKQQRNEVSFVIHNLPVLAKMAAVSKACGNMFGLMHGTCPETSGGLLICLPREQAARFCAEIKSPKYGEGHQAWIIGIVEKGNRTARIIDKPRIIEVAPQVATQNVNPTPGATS
UniProt Q9UPN6: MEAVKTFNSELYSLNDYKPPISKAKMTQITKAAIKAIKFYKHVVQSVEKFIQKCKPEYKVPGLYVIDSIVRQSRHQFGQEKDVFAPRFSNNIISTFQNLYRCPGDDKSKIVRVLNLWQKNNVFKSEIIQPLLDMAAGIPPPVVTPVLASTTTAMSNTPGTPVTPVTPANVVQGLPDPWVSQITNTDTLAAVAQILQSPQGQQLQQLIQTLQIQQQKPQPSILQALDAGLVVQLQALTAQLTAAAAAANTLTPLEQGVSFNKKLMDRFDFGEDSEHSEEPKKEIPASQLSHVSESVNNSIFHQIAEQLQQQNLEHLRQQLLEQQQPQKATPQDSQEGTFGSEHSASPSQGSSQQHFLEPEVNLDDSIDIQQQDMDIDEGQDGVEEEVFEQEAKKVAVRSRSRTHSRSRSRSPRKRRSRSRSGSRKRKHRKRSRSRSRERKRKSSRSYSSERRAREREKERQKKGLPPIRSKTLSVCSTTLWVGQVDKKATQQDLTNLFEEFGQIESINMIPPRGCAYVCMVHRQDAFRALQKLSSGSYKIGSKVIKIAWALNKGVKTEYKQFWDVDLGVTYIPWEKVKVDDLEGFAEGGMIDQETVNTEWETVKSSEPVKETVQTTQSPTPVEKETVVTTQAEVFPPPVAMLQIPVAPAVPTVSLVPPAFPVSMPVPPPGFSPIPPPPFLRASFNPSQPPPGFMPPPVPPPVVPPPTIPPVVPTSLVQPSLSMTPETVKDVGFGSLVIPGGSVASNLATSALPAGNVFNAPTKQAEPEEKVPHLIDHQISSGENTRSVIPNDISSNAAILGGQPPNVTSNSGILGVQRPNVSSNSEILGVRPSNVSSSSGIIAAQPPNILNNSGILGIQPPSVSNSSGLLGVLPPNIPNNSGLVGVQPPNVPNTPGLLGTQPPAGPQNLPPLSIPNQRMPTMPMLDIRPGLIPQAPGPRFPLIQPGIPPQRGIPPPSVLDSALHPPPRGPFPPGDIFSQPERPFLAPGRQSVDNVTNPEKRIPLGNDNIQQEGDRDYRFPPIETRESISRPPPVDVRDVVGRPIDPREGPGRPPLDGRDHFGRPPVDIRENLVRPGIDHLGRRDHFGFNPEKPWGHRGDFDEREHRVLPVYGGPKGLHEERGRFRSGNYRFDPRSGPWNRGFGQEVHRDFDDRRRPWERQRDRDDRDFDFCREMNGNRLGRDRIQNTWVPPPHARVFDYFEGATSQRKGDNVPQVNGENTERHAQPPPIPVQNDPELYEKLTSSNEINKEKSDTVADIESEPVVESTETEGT
UniProt Q96ER3: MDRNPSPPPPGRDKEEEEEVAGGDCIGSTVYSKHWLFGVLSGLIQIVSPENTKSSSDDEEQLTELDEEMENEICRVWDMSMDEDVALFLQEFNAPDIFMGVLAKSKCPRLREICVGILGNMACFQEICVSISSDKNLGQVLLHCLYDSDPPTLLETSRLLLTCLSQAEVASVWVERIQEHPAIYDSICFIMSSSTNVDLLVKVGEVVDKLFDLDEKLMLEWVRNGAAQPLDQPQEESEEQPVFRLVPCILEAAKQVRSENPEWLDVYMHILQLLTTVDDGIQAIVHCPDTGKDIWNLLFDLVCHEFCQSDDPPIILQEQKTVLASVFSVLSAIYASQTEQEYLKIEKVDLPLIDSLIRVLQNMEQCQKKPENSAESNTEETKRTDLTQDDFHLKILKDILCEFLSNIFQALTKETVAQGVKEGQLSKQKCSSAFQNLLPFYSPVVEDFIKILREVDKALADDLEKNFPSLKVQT
UniProt O95104: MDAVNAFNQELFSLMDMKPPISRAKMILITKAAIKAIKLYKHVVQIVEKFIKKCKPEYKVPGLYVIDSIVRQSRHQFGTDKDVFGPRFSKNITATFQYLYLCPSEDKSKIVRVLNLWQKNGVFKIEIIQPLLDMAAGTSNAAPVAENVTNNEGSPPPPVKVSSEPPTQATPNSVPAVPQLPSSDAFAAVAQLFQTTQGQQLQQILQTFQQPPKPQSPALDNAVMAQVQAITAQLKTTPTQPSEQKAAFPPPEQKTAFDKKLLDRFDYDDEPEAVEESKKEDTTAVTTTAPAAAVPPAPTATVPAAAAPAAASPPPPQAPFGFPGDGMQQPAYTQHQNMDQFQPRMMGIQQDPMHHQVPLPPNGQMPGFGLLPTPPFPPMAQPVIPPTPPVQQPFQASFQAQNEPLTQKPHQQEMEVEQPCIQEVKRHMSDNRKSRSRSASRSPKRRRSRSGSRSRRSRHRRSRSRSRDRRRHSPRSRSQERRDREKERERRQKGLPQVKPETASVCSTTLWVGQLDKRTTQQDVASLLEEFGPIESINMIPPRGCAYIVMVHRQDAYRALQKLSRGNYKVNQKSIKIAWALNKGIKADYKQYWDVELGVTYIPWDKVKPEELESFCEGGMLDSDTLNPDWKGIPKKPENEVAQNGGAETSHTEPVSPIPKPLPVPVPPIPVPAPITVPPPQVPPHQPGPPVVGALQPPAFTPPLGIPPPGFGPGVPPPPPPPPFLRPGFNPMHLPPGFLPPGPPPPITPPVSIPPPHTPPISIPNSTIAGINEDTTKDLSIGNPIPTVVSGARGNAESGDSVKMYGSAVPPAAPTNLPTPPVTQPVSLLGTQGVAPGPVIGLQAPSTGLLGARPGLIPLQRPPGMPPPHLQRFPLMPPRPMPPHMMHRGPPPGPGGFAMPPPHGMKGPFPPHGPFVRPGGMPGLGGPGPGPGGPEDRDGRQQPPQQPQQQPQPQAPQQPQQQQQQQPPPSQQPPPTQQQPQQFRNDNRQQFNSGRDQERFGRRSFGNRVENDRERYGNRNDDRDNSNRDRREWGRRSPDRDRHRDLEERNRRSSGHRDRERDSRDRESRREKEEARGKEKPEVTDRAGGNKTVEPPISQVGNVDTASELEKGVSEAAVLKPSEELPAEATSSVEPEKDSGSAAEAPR
UniProt Q15437: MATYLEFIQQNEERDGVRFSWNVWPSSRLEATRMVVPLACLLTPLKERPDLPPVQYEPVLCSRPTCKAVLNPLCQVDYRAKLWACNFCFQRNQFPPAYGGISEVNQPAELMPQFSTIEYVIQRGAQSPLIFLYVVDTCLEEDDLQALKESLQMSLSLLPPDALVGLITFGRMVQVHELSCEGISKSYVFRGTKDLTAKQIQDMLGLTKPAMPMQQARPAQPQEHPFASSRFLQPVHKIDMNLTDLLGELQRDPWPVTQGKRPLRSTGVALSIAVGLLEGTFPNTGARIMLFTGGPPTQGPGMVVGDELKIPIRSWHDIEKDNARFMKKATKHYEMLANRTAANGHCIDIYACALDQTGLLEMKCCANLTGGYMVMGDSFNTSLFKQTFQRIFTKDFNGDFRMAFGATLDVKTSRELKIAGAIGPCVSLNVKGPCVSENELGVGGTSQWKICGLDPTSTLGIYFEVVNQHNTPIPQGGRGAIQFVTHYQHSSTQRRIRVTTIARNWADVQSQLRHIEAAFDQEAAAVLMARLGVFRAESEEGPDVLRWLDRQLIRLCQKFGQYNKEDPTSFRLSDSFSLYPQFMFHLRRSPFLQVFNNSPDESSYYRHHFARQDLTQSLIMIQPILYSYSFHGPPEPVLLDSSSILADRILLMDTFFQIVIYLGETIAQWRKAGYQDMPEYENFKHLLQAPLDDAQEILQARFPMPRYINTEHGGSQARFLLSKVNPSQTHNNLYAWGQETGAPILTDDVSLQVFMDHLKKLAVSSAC
UniProt Q15436: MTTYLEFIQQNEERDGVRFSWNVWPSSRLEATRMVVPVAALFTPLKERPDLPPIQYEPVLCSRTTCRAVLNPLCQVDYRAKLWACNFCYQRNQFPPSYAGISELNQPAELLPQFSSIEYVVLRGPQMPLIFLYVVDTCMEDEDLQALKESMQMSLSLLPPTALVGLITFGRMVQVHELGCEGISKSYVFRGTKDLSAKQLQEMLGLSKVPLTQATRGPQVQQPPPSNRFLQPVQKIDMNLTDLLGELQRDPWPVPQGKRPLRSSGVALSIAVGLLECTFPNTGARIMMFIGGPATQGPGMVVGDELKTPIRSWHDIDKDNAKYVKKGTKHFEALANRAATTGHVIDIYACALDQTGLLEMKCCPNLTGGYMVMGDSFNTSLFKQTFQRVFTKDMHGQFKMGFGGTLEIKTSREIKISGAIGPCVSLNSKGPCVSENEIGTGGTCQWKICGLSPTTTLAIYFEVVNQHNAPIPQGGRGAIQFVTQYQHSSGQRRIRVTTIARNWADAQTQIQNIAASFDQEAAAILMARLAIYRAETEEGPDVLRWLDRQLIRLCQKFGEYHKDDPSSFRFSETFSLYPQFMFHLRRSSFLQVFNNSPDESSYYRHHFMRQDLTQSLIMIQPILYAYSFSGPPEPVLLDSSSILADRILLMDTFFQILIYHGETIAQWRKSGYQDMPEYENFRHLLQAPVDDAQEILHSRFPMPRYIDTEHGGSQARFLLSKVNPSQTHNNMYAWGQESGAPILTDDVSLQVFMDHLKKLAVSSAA
UniProt Q8IZQ5, whole entry, looked up: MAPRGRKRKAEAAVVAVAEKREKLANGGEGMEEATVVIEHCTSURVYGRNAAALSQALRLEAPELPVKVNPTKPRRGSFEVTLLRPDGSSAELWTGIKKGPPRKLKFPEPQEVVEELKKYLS
UniProt Q9C0C4, whole entry, looked up: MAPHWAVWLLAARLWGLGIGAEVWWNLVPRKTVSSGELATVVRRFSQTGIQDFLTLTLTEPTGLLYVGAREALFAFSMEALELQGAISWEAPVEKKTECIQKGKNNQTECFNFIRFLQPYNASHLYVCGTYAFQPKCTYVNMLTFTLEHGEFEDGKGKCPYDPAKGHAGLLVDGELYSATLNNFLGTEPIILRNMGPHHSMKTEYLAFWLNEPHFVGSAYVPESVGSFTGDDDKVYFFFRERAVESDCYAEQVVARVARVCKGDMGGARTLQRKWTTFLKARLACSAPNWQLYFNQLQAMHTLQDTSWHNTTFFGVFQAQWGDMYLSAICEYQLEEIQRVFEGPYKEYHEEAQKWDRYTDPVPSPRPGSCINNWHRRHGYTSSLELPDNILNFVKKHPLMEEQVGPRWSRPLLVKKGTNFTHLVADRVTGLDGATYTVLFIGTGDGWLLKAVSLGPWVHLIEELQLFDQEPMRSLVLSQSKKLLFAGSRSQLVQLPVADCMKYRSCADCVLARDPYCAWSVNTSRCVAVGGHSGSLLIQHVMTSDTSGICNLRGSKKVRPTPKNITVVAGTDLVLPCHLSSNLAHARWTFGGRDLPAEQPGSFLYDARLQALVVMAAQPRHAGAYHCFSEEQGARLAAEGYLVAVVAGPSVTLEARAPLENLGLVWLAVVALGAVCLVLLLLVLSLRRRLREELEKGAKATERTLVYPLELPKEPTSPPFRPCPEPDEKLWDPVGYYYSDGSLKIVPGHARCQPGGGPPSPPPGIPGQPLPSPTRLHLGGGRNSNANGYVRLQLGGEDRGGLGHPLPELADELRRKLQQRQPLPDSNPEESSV
UniProt Q9NVA2: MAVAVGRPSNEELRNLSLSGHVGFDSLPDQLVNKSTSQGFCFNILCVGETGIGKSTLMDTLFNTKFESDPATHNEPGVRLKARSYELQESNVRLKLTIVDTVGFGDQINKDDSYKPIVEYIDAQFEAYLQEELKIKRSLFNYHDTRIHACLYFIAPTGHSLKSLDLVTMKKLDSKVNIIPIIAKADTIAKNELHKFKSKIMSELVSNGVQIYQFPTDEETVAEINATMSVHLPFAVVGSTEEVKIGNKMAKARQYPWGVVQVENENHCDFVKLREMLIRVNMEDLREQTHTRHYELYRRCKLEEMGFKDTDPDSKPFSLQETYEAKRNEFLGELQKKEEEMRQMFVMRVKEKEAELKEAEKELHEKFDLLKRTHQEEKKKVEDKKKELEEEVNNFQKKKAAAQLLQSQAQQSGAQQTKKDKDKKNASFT
UniProt Q15019: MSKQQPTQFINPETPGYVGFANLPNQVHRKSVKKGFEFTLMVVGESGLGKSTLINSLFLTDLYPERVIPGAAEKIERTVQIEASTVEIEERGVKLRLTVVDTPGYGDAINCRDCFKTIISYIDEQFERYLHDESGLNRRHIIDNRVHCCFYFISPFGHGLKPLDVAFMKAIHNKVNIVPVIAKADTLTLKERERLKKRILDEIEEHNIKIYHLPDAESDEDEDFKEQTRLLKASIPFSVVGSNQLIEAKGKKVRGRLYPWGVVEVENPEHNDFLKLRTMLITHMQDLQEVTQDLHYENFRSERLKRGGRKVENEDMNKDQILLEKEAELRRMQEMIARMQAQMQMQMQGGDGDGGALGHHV

Columns and labels:
Assay in all cases: log2 fold change, soluble protein after heating vs DMSO (PISA); higher = thermal stabilisation; K562 lysate, 10 uM; active = over 0.2 and 3.5 SD of the protein, either way, in both replicates (recomputed)
[1] = compound: NCC(=O)Nc1ccc(-n2nc(C(F)(F)F)cc2-c2ccc3c(ccc4ccccc43)c2)cc1
Procedure, shortened: (§1)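 To prepare the extract, K562 pellets were dounce-homogenised in PBS pH 7.4 with 1 mM MgCl2, giving crude material at 1 mg/mL protein. This was treated with 10 μM compound for 30 min, then heated in aliquots for 3 min over 48°C-58°C before pooling and addition of NP-40 to 0.5% at 4°C. Centrifugation at 21,000xg for 90 min left soluble protein in the supernatant, which TMTpro 16plex LC-MS/MS quantified with equalised channel sums. Results are log-two fold changes in thermal stability compared with solvent controls, from duplicates.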

[2] = compound: O=C(CCCCCCC(=O)Nc1ccccc1)NO [vorinostat]
Procedure, shortened: as §1

[3] = compound: O=C(O)c1ccc2c(c1)nc(Nc1cccc(Cl)c1)c1ccncc12 [silmitasertib]
Procedure, shortened: as §1

[4] = compound: O=C1NC(=O)C(c2cnc3ccccn23)=C1c1cn2c3c(cc(F)cc13)CN(C(=O)N1CCCCC1)CC2
Procedure, shortened: as §1

[5] = compound: c1cn2cc(-c3ccc4cn[nH]c4c3)nc(Nc3ccc(N4CCOCC4)cc3)c2n1 [entospletinib]
Procedure, shortened: as §1

Measured: log2 fold change

SEPHS1 (UniProt P49903)
inactive: [1] 0.032 | [2] 0.113 | [3] -0.012 | [4] 0.029 | [5] 0.002

SEPHS2 (UniProt Q99611)
inactive: [1] 0.012 | [2] 0.092 | [3] -0.028 | [4] 0 | [5] -0.024

SCP2 (UniProt P22307)
inactive: [1] -0.011 | [2] 0.132 | [3] -0.037 | [4] 0 | [5] 0

SCO1 (UniProt O75880)
inactive: [1] 0.022 | [2] 0.149 | [3] -0.067 | [4] -0.052 | [5] 0

SDHAF2 (UniProt Q9NX18)
inactive: [1] 0.018 | [2] 0.046 | [3] -0.01 | [4] 0.042 | [5] -0.068

SCAF8 (UniProt Q9UPN6)
inactive: [1] -0.003 | [2] -0.159 | [3] 0.011 | [4] 0.01 | [5] -0.016

SCG3 (UniProt Q8WXD2)
inactive: [1] -0.065 | [2] 0.057 | [3] -0.031 | [4] -0.026 | [5] -0.083

SCLT1 (UniProt Q96NL6)
inactive: [1] 0.043 | [2] -0.093 | [3] -0.029 | [4] 0.002 | [5] -0.071

SEC61A1 (UniProt P61619)
inactive: [1] 0.011 | [2] 0.037 | [3] -0.025 | [4] 0.005 | [5] 0.017

Random excerpt: 2 entries already listed, in no set order.
SDHAF2 (UniProt Q9NX18)
inactive: [1] 0.018 | [2] 0.046 | [3] -0.01 | [4] 0.042 | [5] -0.068

SCLT1 (UniProt Q96NL6)
inactive: [1] 0.043 | [2] -0.093 | [3] -0.029 | [4] 0.002 | [5] -0.071

Carrying on:

SAAL1 (UniProt Q96ER3)
inactive: [1] -0.033 | [2] -0.171 | [3] 0.074 | [4] -0.076 | [5] 0.013

SCRN2 (UniProt Q96FV2)
inactive: [1] 0.004 | [2] 0.345 | [3] -0.125 | [4] -0.038 | [5] 0.024

SCAF4 (UniProt O95104)
inactive: [1] 0.036 | [2] -0.071 | [3] -0.026 | [4] -0.005 | [5] -0.006

SEC23B (UniProt Q15437)
inactive: [1] -0.025 | [2] -0.02 | [3] -0.003 | [4] -0.006 | [5] 0.05

SEC23A (UniProt Q15436)
inactive: [1] -0.017 | [2] -0.048 | [3] 0.021 | [4] -0.002 | [5] 0.001

SCAMP2 (UniProt O15127)
inactive: [1] -0.055 | [2] 0.081 | [3] 0.024 | [4] 0.032 | [5] 0.206

SEPTIN8 (UniProt Q92599)
inactive: [1] 0.013 | [2] 0.099 | [3] 0.007 | [4] -0.043 | [5] 0.013

SCRIB (UniProt Q14160)
inactive: [1] 0.027 | [2] -0.184 | [3] -0.012 | [4] -0.054 | [5] 0.004

SCYL2 (UniProt Q6P3W7)
inactive: [1] 0.023 | [2] 0.115 | [3] -0.026 | [4] -0.026 | [5] -0.015

SCARB2 (UniProt Q14108)
inactive: [1] -0.006 | [2] 0.11 | [3] -0.047 | [4] -0.059 | [5] -0.004

SELENOH (UniProt Q8IZQ5)
inactive: [1] 0.005 | [2] 0.083 | [3] 0.023 | [4] -0.006 | [5] -0.033

SEMA4C (UniProt Q9C0C4)
inactive: [1] -0.009 | [2] 0.048 | [3] -0.056 | [4] -0.071 | [5] -0.048

SEPTIN11 isoform 2 (UniProt Q9NVA2)
inactive: [1] 0.011 | [2] 0.124 | [3] -0.01 | [4] 0.014 | [5] 0.015

SECISBP2L (UniProt Q93073)
inactive: [1] -0.035 | [2] -0.224 | [3] 0.016 | [4] -0.058 | [5] 0.068

SEPTIN2 isoform 2 (UniProt Q15019)
inactive: [1] 0.028 | [2] 0.077 | [3] -0.036 | [4] -0.007 | [5] -0.007
